Screen size: about 320,000 compounds; about 2,100 (0.66%) were called active. Inconclusive results, whose numbers are uncertain, are shown with a selection of clear calls. Calls come from the whole dose curve; as a rule, active = well fitted inhibition curve with a large enough effect in the signal ratio, with a control signal flat (not every such curve was filed as active); inconclusive = small, poorly fitted or top-dose-only effect, or effect the other way, or a change in a side signal; inactive = flat fitted curve, though single readings scatter; the % refers to the signal ratio. A potency beside an inconclusive call is a rough fit, not a confirmed value.
assay: qHTS Assay for Lipid Storage Modulators in Drosophila S3 Cells; conditions: BODIPY lipid droplet fluorescence, 18-24 h, cells fed with added oleic acid; lipid storage change, negative = inhibition: at 46.1 µM (top of the series) unless noted
Procedure, shortened: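 Drosophila S3 cells got compounds at several concentrations plus oleic acid (400 uM solution). Laser-scanning cytometry with 488 nm excitation read lipid droplets at 500-530 nm and cells at 575-640 nm. Percent activity was relative to 20 uM Triacsin C.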
% is set by controls: 0 for no effect and ±100 for the full control effect; potency is the fitted concentration of half-maximal effect.

Row | Compound | Potency | lipid storage change, negative = inhibition
1 | Cc1nn(C(=O)CCCC(=O)NCc2ccccc2)c2ccccc12 | inconclusive: 5.8 µM [activator, single point] | –
2 | CC(C#N)Sc1nc2ccccc2c(=O)n1-c1ccccc1 (stereo not given) | inconclusive: 0.58 µM [falling, single point] | –
3 | COc1cccc(OC)c1C(=O)Nc1ccc(S(=O)(=O)N2CCCCC2)cc1 | – | inconclusive: 17.8%
4 | O=C(O)/C=C\C(=O)Nc1ccc(OC(F)F)cc1 | inconclusive: 0.0116 µM [falling, full curve, poor fit] | –
5 | Cc1[nH]c2ccccc2c1/C=C(\C#N)C(=O)NCc1ccccc1 | – | inconclusive: -42.8%
6 | CCOC(=O)/C=C/C(=O)Nc1cc(S(=O)(=O)Nc2ccc(OC)cc2)ccc1N1CCOCC1 | inconclusive: 25.9 µM [falling, single point] | –
7 | Cc1ccc(NC(=O)C(C)N2C(=O)C3C4CC(C(Br)C4Br)C3C2=O)cc1 (stereo not given) | – | inconclusive: -17.4%
8 | O=C(/C=C/c1ccc(F)cc1)NC(=S)Nc1ccccc1 | inconclusive: 0.58 µM [rising, full curve, poor fit] | –
9 | Cn1c(SCC(=O)Nc2ccc3nc(SCC(=O)NC4CC4)sc3c2)nnc1-c1ccccc1 | – | inactive: -1.58%
10 | CCOC(=O)C1CCN(Cc2cnc(Oc3ccc(Cl)cc3C)s2)CC1 | – | inconclusive: 6.8%
11 | COc1ccc([N+](=O)[O-])cc1NC(=O)Nc1ccccc1 | inconclusive: 9.2 µM [activator, partial curve, poor fit] | –
12 | O=S1(=O)CCN2N=C(C34CC5CC(CC(C5)C3)C4)SC2=N1 | – | inconclusive: 48.5%
13 | OC(c1ccccc1)c1nccn1Cc1ccccc1 (stereo not given) | inconclusive: 29.1 µM [falling, single point] | –
14 | COC(=O)c1c(NC(=O)c2ccc(Br)s2)sc2c1CCC2 | inconclusive: 6.51 µM [activator, partial curve] | –
15 | CCN(C(=O)COC(=O)COc1ccc2c(C)cc(=O)oc2c1)C1CCS(=O)(=O)C1 (stereo not given) | active: 0.0461 µM | –
16 | COc1cccc(NC(=O)CCc2nnc3ccc(NCc4ccco4)nn23)c1 | inconclusive: 16.4 µM [falling, partial curve, poor fit] | –
17 | CCCCN(C(=O)c1cc2ccccc2o1)c1c(N)n(CCCC)c(=O)[nH]c1=O | – | inconclusive: -25.2%
18 | CN1CCN(c2ccc(NC(=O)c3ccc(Oc4ccccc4)cc3)cc2)CC1 | – | inconclusive: 145%
19 | Cc1ccc(S(=O)(=O)N(C)c2ccc(C(=O)Nc3ccccc3C(=O)N3CCOCC3)cc2)cc1 | inconclusive: 29.1 µM [activator, partial curve, poor fit] | –
20 | O=S(=O)(c1ccccc1)N1CCN(S(=O)(=O)c2ccc(F)cc2)CC1 | – | inactive: 28.1%
21 | COc1cccc(C(=O)Nc2ccc3c(c2)C(=O)c2ccccc2C3=O)c1 | inconclusive: 16.4 µM [falling, partial curve, poor fit] | –
22 | Cc1cccc(OCC(O)CN2CCN(CCN3C(=O)c4cccc5cccc(c45)C3=O)CC2)c1C (stereo not given) | – | inconclusive: -52% [cytotoxic] [at 0.00295 µM]
23 | NC(=O)CC(NC(=O)c1ccccc1)c1ccc(N2CCN(c3ccccc3)CC2)c([N+](=O)[O-])c1 (stereo not given) | – | inconclusive: -70.8%

A draw from above in order of molecular weight, low to high.
Row | Compound | Potency | lipid storage change, negative = inhibition
13 | OC(c1ccccc1)c1nccn1Cc1ccccc1 (stereo not given) | inconclusive: 29.1 µM [falling, single point] | –
11 | COc1ccc([N+](=O)[O-])cc1NC(=O)Nc1ccccc1 | inconclusive: 9.2 µM [activator, partial curve, poor fit] | –
2 | CC(C#N)Sc1nc2ccccc2c(=O)n1-c1ccccc1 (stereo not given) | inconclusive: 0.58 µM [falling, single point] | –
5 | Cc1[nH]c2ccccc2c1/C=C(\C#N)C(=O)NCc1ccccc1 | – | inconclusive: -42.8%
12 | O=S1(=O)CCN2N=C(C34CC5CC(CC(C5)C3)C4)SC2=N1 | – | inconclusive: 48.5%
14 | COC(=O)c1c(NC(=O)c2ccc(Br)s2)sc2c1CCC2 | inconclusive: 6.51 µM [activator, partial curve] | –
18 | CN1CCN(c2ccc(NC(=O)c3ccc(Oc4ccccc4)cc3)cc2)CC1 | – | inconclusive: 145%
17 | CCCCN(C(=O)c1cc2ccccc2o1)c1c(N)n(CCCC)c(=O)[nH]c1=O | – | inconclusive: -25.2%
23 | NC(=O)CC(NC(=O)c1ccccc1)c1ccc(N2CCN(c3ccccc3)CC2)c([N+](=O)[O-])c1 (stereo not given) | – | inconclusive: -70.8%
7 | Cc1ccc(NC(=O)C(C)N2C(=O)C3C4CC(C(Br)C4Br)C3C2=O)cc1 (stereo not given) | – | inconclusive: -17.4%
19 | Cc1ccc(S(=O)(=O)N(C)c2ccc(C(=O)Nc3ccccc3C(=O)N3CCOCC3)cc2)cc1 | inconclusive: 29.1 µM [activator, partial curve, poor fit] | –
9 | Cn1c(SCC(=O)Nc2ccc3nc(SCC(=O)NC4CC4)sc3c2)nnc1-c1ccccc1 | – | inactive: -1.58%

Further results.

Row | Compound | Potency | lipid storage change, negative = inhibition
24 | O=C(CCc1nc2ccccc2c(=O)[nH]1)OCc1nnc(-c2ccccc2)o1 | – | inconclusive: 5.81%
25 | CC1C(=O)Nc2ccccc2N1C(=O)c1ccc(F)cc1 (stereo not given) | – | inconclusive: 12.1%
26 | CCC(C(=O)c1ccc2ncccc2c1)c1ccccc1 (stereo not given) | inconclusive: 16.4 µM [falling, single point] | –
27 | O=C(CC1SC(=Nc2ccccc2)N(Cc2ccccn2)C1=O)Nc1ccc(Br)cc1 (stereo not given) | – | inconclusive: 12.2%
28 | CCCN(CCC)CCCOC(=O)c1ccc(Cl)cc1Cl | – | inconclusive: -47.8%
29 | COc1cccc(CN2C(=O)CCC2(C)C(=O)NCCc2ccc(OC)c(OC)c2)c1 (stereo not given) | – | inconclusive: 91.6%
30 | CN(C)S(=O)(=O)c1cccc(NC(=O)c2cc3ccccc3o2)c1 | inconclusive: 29.1 µM [activator, partial curve, poor fit] | –
31 | Cc1ccccc1NC(=O)CSc1nc2[nH]c(=O)cc(O)c2s1 | inconclusive: 20.6 µM [activator, partial curve] | –
32 | Cc1ccc(NS(=O)(=O)c2ccc3[nH]c(=O)c(=O)[nH]c3c2)cc1Cl | inconclusive: 0.366 µM [falling, single point] | –
33 | COc1cccc(Nc2nc3ccc(C(=O)c4ccccc4)cc3n3cnnc23)c1 | – | inconclusive: -26.6%
34 | O=C(NCC1CCCO1)c1ccc(COc2ccc(Cl)cc2)cc1 (stereo not given) | – | inconclusive: -12.3%
35 | Cc1ccc(CNC(=O)c2cc(-c3ccccc3)nn2Cc2cc(C)no2)cc1 | inconclusive: 7.31 µM [falling, single point] | –
36 | O=C(O)c1ccccc1-c1nc2ccccc2n1-c1ccccc1 | – | inconclusive: -22.1%
37 | COc1cc(C(=O)Nc2cc(-c3nc4cc(C)ccc4o3)ccc2C)cc(OC)c1OC | inconclusive: 5.8 µM [activator, single point] | –
38 | CN(C)C(=O)c1ccc(NC(=O)COC(=O)C2CCN(S(=O)(=O)c3ccc4c(c3)OCCO4)CC2)cc1 | – | inconclusive
39 | COc1ccc(C(=O)COC(=O)CCN2C(=O)C3C4CCC(C4)C3C2=O)cc1 (stereo not given) | – | inconclusive: -17.6%
40 | COc1ccc(/C=N/N2CCN(c3ccc(Cl)cc3)CC2)cc1O | inconclusive: 20.6 µM [activator, partial curve] | –
41 | CCN1CCN(S(=O)(=O)CC2(C)C3CCC2(C)C(=O)C3Br)CC1 (stereo not given) | – | inconclusive: 12.5%
42 | CC(=O)Nc1cc(NC(C)=O)cc(C(=O)OCC(=O)c2ccc3c(c2)NC(=O)CO3)c1 | – | inconclusive
43 | COc1cc2ccccc2cc1C(=O)Nc1ccc(C)cn1 | – | inconclusive: -11.7%
44 | CC1CCCC(NC(=O)COC(=O)/C=C/c2ccco2)C1C (stereo not given) | inconclusive: 0.0651 µM [falling, full curve, poor fit] | –
45 | COc1cc2c(cc1OC)CN(C(=O)CSc1nc(N)c(C#N)cc1C#N)CC2 | – | inconclusive: 15.6%

Source: PubChem BioAssay AID2685 (National Center for Advancing Translational Sciences (NCATS), 2010)
